Measured data: PubChem BioAssay AID1259425 (University of Nebraska Medical Center, 2018)

Aim: 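Find knockdowns that reproduce the gene expression pattern seen when KSR1 is lost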 (primary screen)
System: HCT116 human colon cancer cells
Knock-down reagent: siRNA pool against human genes, 50 nM siRNA
Measurement: 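mRNA of six signature genes measured together by branched-DNA assay after 50 nM siRNA pool, blank removed, divided by geometric mean of two housekeeping genes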
Scale: BNIP3L mRNA: higher = more BNIP3L transcript after knockdown
This is an unselected part of about 14,000 deposited reagents. Not all columns of the deposit are shown. No sequences are given here. Not stated in the record: the time to read-out.

CASP7 showed BNIP3L mRNA, set 1 = 0.0449. With knock-down of HDAC11, the screen gave BNIP3L mRNA, set 1 = 0.0948. AQP4 gave BNIP3L mRNA, set 1 = 0.0867. RPL7 showed BNIP3L mRNA, set 1 = 0.266. For FKBP5, the entry reads BNIP3L mRNA, set 1 = 0.0899. With knock-down of IL16 the results were BNIP3L mRNA, set 1 = 0.0814.

For TEDC2, the values are BNIP3L mRNA, set 1 = 0.249. Silencing of EFCAB7 came out at: BNIP3L mRNA, set 1 = 0.15. Against MKNK1 the deposit lists BNIP3L mRNA, set 1 = 0.144. After knock-down of HAPSTR1 the results were BNIP3L mRNA, set 1 = 0.105. After knock-down of ACTR1A the results were BNIP3L mRNA, set 1 = 0.113. After knock-down of MSLN, the screen gave BNIP3L mRNA, set 1 = 0.0938.

After knock-down of TDG, the record shows BNIP3L mRNA, set 1 = 0.0325. DLX4 gave BNIP3L mRNA, set 1 = 0.0536. For CCDC90B the deposit lists BNIP3L mRNA, set 1 = 0.116. Knock-down of ITGAE gave: BNIP3L mRNA, set 1 = 0.0485. SLC2A1 showed BNIP3L mRNA, set 1 = 0.0839. CAPN15 gave BNIP3L mRNA, set 1 = 0.119.

Knock-down of INGX gave: BNIP3L mRNA, set 1 = 0.0498. GPC4 showed BNIP3L mRNA, set 1 = 0.161. For TPST1, the entry reads BNIP3L mRNA, set 1 = 0.0748. For MRPS18B the deposit lists BNIP3L mRNA, set 1 = 0.101. MAMDC4 scored BNIP3L mRNA, set 1 = 0.0899. Against ICE1, the values are BNIP3L mRNA, set 1 = 0.12.

Knock-down of DCLRE1C came out at: BNIP3L mRNA, set 1 = 0.195. After knock-down of BSND, the record shows BNIP3L mRNA, set 1 = 0.174. TNFRSF11B showed BNIP3L mRNA, set 1 = 0.124. After knock-down of ZNF607 the results were BNIP3L mRNA, set 1 = 0.11.

Reformatted: results already given.
target	BNIP3L mRNA, set 1
CCDC90B	0.116
ITGAE	0.0485
